Assay results taken from PMC7260207.
No constants are given. Whether binding was seen depends on the method and setting. In cells and extracts the contact can be indirect. Some binding calls cover weakened binding; strength is not graded here.

Protein sequences, listed by entry. Tags and fused reporters are not part of them. Residues count along the entry.
UniProt Q16620, residues 32-822: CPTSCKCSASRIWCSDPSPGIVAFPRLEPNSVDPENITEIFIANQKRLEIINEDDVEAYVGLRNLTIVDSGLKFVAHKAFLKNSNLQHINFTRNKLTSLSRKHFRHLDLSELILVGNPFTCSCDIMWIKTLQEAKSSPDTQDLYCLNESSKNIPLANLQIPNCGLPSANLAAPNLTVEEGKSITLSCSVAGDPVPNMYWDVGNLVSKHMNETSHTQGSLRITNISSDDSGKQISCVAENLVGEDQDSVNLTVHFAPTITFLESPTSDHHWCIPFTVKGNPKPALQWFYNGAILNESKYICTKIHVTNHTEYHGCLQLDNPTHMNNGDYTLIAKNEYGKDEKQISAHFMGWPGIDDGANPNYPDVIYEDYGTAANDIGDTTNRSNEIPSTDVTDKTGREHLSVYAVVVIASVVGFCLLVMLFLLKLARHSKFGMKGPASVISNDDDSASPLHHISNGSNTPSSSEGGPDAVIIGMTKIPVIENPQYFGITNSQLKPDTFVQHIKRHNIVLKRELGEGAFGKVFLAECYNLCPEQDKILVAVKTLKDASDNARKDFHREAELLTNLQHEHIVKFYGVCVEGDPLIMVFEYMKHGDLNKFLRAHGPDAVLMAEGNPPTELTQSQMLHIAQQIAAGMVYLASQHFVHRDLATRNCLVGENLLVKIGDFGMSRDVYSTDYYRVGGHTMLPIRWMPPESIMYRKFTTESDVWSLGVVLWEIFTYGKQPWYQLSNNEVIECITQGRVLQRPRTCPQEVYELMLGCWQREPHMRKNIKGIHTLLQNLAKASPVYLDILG

Target: tropomyosin receptor kinase B (TrkB) (human (endogenous in FT240)) (UniProt Q16620)
Experiment: co-IP; FTE cells (FT240) expressing GFP or mutant p53; SureBeads (Bio-Rad) incubated with 1 µg antibody for 10 min at room temperature; which partner was precipitated is not told in the main text

binding: binds
B1: Golgi Associated Gamma Adaptin Ear Containing ARF Binding Protein 3 (GGA3) (protein, UniProt Q9NZ52 1-723)
chain: MAEAEGESLESWLNKATNPSNRQEDWEYIIGFCDQINKELEGPQIAVRLLAHKIQSPQEWEALQALTVLEACMKNCGRRFHNEVGKFRFLNELIKVVSPKYLGDRVSEKVKTKVIELLYSWTMALPEEAKIKDAYHMLKRQGIVQSDPPIPVDRTLIPSPPPRPKNPVFDDEEKSKLLAKLLKSKNPDDLQEANKLIKSMVKEDEARIQKVTKRLHTLEEVNNNVRLLSEMLLHYSQEDSSDGDRELMKELFDQCENKRRTLFKLASETEDNDNSLGDILQASDNLSRVINSYKTIIEGQVINGEVATLTLPDSEGNSQCSNQGTLIDLAELDTTNSLSSVLAPAPTPPSSGIPILPPPPQASGPPRSRSSSQAEATLGPSSTSNALSWLDEELLCLGLADPAPNVPPKESAGNSQWHLLQREQSDLDFFSPRPGTAACGASDAPLLQPSAPSSSSSQAPLPPPFPAPVVPASVPAPSAGSSLFSTGVAPALAPKVEPAVPGHHGLALGNSALHHLDALDQLLEEAKVTSGLVKPTTSPLIPTTTPARPLLPFSTGPGSPLFQPLSFQSQGSPPKGPELSLASIHVPLESIKPSSALPVTAYDKNGFRILFHFAKECPPGRPDVLVVVVSMLNTAPLPVKSIVLQAAVPKSMKVKLQPPSGTELSPFSPIQPPAAITQVMLLANPLKEKVRLRYKLTFALGEQLSTEVGEVDQFPPVEQWGNL
